According to the supplement of paper PMC10849652:
Some of the results follow.

Sequences of proteins named here, by UniProt entry; tags and fusion partners are left off. A change or cut given only in a name is not applied to a line headed by its entry.
UniProt Q15907: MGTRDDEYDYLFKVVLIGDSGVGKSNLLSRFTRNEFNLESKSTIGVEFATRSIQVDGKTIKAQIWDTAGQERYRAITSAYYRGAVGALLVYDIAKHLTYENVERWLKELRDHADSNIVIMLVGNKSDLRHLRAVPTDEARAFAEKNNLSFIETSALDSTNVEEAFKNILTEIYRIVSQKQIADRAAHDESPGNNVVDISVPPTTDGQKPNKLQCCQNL
UniProt O60216: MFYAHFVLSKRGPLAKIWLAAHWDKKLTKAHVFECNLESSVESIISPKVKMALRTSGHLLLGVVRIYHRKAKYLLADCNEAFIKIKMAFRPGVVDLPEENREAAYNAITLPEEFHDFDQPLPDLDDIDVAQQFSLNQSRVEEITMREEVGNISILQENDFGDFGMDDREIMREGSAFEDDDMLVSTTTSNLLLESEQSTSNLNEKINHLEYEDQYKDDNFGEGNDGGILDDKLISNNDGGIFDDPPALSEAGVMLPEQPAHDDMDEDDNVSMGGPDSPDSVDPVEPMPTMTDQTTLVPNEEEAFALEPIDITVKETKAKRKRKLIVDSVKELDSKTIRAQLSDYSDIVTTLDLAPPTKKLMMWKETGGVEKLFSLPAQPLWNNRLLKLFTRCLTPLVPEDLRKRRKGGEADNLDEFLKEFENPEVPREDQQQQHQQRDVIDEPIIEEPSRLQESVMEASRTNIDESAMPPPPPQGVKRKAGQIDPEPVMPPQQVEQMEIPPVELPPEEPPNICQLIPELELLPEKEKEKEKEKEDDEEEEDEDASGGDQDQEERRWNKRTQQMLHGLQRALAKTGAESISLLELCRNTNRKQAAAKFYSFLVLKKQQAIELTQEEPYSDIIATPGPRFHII
UniProt Q8TDY2, whole entry, looked up: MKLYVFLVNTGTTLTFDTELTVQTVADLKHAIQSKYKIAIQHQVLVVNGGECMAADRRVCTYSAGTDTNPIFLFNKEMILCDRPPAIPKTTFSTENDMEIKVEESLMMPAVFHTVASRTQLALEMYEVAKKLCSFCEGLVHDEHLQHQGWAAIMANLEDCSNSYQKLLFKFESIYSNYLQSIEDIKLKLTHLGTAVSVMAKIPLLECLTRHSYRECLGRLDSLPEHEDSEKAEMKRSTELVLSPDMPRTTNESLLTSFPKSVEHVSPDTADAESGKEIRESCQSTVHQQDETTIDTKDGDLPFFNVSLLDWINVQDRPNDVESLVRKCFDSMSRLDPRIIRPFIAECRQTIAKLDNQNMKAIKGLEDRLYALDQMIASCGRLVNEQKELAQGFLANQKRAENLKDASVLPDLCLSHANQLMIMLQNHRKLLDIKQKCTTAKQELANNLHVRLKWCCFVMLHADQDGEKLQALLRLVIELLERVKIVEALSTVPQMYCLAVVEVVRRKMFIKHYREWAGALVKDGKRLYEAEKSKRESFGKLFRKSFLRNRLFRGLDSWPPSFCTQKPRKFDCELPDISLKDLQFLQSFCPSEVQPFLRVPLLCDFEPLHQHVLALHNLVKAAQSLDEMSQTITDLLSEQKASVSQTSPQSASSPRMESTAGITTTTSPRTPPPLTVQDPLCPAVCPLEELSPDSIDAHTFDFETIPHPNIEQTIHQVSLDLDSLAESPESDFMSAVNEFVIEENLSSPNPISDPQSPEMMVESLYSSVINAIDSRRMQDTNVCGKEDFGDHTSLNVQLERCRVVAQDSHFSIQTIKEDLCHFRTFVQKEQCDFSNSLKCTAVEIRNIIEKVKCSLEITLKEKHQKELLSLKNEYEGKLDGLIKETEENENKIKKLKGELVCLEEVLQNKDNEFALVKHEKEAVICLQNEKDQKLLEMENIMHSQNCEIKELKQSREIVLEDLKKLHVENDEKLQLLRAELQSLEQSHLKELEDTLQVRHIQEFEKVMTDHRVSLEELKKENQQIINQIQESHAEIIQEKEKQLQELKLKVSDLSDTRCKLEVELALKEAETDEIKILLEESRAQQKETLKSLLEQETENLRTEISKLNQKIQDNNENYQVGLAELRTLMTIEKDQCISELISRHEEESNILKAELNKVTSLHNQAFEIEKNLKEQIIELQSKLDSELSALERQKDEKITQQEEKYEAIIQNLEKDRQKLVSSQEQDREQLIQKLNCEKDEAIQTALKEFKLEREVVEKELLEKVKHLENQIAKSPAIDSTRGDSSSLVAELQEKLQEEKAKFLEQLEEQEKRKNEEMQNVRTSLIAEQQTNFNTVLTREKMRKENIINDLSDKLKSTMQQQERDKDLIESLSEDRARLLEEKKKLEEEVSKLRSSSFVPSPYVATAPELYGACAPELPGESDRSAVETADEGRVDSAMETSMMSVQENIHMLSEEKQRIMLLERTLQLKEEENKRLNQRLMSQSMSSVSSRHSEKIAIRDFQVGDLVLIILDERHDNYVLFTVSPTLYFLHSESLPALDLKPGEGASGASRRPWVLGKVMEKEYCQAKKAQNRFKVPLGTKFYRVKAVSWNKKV
UniProt P61106, whole entry, looked up: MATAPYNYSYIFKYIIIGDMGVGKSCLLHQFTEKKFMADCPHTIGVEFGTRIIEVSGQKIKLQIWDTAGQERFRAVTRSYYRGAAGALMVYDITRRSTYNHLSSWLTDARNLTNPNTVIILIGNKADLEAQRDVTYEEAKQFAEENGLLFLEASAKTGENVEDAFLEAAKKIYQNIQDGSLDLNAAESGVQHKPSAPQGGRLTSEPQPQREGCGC
UniProt Q9BTL3: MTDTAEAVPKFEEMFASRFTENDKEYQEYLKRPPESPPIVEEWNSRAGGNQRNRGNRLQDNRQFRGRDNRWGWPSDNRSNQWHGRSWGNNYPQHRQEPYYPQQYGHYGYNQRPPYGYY
UniProt P20339: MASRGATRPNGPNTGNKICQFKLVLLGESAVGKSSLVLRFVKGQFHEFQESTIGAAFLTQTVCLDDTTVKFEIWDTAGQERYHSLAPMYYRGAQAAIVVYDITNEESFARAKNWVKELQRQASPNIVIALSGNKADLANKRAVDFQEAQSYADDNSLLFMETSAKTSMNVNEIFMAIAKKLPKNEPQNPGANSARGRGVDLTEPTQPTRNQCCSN
UniProt Q96B01: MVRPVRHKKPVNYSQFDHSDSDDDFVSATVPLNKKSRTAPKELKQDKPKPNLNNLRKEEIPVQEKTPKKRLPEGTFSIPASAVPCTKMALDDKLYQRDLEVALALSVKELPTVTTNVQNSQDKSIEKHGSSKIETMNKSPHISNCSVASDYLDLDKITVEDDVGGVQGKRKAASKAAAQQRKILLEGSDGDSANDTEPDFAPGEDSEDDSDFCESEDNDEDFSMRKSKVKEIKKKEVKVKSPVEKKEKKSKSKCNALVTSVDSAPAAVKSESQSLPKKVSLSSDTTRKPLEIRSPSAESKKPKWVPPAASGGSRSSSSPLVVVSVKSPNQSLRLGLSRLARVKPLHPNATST
UniProt Q96S21: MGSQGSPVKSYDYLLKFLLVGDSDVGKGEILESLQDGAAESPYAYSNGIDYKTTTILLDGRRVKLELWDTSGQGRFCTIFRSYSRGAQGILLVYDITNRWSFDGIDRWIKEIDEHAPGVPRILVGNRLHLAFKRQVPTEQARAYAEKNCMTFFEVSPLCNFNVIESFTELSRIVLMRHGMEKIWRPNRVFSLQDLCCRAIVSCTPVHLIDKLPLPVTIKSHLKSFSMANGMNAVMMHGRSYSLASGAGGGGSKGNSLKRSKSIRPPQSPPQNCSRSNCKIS
UniProt Q9UJ41, whole entry, looked up: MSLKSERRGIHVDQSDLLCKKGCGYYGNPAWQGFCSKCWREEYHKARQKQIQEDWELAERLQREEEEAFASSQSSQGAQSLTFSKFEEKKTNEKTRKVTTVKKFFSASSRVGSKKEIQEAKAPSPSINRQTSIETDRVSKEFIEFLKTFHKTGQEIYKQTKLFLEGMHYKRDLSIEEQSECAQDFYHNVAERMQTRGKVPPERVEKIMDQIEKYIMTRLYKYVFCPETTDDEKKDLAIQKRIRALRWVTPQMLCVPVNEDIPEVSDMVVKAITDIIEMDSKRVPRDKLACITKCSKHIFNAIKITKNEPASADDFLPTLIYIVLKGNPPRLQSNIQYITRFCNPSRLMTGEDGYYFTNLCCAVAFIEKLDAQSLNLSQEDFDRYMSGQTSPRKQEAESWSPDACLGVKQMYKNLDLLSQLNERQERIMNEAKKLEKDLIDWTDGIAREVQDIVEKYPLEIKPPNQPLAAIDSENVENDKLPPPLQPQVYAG
UniProt O60518: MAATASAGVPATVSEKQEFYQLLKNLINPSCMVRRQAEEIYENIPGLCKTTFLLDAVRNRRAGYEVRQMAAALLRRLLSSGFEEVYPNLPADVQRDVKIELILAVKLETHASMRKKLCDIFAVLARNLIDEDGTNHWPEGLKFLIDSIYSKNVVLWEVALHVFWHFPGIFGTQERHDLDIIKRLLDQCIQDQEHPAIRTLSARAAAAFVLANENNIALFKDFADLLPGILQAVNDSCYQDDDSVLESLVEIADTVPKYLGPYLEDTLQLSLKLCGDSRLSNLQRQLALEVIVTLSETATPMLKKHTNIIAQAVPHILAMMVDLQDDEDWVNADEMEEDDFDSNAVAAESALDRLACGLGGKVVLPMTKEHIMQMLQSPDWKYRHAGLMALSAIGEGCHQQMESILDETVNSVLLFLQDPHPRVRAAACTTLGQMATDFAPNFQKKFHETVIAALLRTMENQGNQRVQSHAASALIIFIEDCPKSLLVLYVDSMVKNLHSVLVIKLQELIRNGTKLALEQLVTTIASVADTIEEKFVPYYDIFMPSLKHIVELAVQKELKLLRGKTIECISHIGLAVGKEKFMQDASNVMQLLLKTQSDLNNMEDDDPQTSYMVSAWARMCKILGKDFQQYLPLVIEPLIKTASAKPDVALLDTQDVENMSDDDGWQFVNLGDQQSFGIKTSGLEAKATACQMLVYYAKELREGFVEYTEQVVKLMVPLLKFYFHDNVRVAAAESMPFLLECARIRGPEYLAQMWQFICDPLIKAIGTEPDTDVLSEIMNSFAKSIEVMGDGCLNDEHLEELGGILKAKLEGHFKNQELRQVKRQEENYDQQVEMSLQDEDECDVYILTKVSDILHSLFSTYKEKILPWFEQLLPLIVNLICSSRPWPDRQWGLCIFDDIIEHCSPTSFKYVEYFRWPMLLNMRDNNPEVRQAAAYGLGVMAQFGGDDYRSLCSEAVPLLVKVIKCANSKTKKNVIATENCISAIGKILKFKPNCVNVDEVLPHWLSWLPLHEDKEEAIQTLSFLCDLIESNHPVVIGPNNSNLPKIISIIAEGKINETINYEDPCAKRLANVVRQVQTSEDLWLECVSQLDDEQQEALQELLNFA
UniProt P78406: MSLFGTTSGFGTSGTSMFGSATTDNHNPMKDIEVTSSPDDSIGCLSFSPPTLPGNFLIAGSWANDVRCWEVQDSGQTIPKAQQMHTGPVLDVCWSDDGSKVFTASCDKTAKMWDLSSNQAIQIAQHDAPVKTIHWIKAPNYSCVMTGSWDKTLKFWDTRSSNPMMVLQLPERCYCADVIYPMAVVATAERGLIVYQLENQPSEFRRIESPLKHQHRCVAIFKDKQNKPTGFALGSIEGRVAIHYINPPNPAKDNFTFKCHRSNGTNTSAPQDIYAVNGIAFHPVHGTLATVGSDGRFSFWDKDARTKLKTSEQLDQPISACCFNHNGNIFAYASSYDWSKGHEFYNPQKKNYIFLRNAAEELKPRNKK
UniProt P61224: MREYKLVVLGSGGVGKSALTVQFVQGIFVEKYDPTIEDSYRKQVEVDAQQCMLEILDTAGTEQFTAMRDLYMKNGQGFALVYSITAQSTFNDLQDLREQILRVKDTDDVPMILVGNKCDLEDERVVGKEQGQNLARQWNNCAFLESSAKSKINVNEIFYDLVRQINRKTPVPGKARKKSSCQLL

Assays:
Experiment in all cases: log2 fold change, soluble protein after heating vs DMSO (PISA); higher = thermal stabilisation; K562 cells, 10 uM, 30 min; active = over 0.2 and 3.5 SD of the protein, either way, in both replicates (recomputed)
[1] = compound: COC1=CC=C(C=C1)CN2C=CC3=C2C=C(C=C3)C(=O)NO
Outline: (§1)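 Soluble protein was quantified by TMTpro 16plex LC-MS/MS after channel sums were equalised. It was obtained as the supernatant after 21,000xg for 90 min from pooled aliquots of K562 cells (2×10^6 cells/mL, 10 μM compound, 30 min) heated for 3 min across 48°C-58°C and extracted in PBS with 0.5% NP-40 at 4°C. Thermal stability values are relative to control samples and come from duplicates. They are given as log2 fold changes.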

[2] = compound: CON(C)C(=O)N1N=C(c2cc(F)ccc2F)S[C@@]1(CCCN)c1ccccc1 [filanesib]
Outline: as §1

[3] = compound: CO[C@H]1C[C@@H]2CC[C@@H](C)[C@@](O)(O2)C(=O)C(=O)N2CCCC[C@H]2C(=O)O[C@H]([C@H](C)C[C@@H]2CC[C@H](n3cnnn3)[C@H](OC)C2)CC(=O)[C@H](C)/C=C(\C)[C@@H](O)[C@@H](OC)C(=O)[C@H](C)C[C@H](C)/C=C/C=C/C=C/1C [zotarolimus]
Outline: as §1

[4] = compound: COc1cc(C(=O)O)ccc1NC(=O)[C@@H]1N[C@@H](CC(C)(C)C)[C@](C#N)(c2ccc(Cl)cc2F)[C@H]1c1cccc(Cl)c1F [idasanutlin]
Outline: as §1

[5] = compound: COc1cc(Nc2ncc3c(n2)-c2ccc(Cl)cc2C(c2c(F)cccc2OC)=NC3)ccc1C(=O)O [alisertib]
Outline: as §1

[6] = compound: COc1cc2nc(-c3cc(F)ccc3O)nc(N[C@@H]3CNC[C@H]3C(C)(C)O)c2cc1OC
Outline: as §1

[7] = compound: COc1cc2ncnc(Nc3ccc(F)c(Cl)c3)c2cc1OCCCN1CCOCC1 [gefitinib]
Outline: as §1

[8] = compound: COc1cccc2cc(-c3nc([C@H]4CC[C@H](C(=O)O)CC4)n4ncnc(N)c34)[nH]c12
Outline: as §1

[9] = compound: CS(=O)(=O)CCNCc1ccc(-c2ccc3ncnc(Nc4ccc(OCc5cccc(F)c5)c(Cl)c4)c3c2)o1 [lapatinib]
Outline: as §1

[10] = compound: CS(=O)(=O)N1CCN(Cc2cc3nc(-c4cccc5[nH]ncc45)nc(N4CCOCC4)c3s2)CC1 [pictilisib]
Outline: as §1

Measured: log2 fold change

RAB11B (UniProt Q15907)
inactive: [1] -0.035 | [2] 0.019 | [3] -0.058 | [4] 0.025 | [5] -0.075 | [6] 0.048 | [7] 0.045 | [8] 0.065 | [9] -0.008 | [10] -0.01

RAD21 (UniProt O60216)
inactive: [1] 0.05 | [2] 0.05 | [3] 0.009 | [4] 0.002 | [5] -0.052 | [6] -0.006 | [7] 0.006 | [8] 0.042 | [9] 0.029 | [10] 0.024

RAB6A isoform 2 (UniProt P20340)
inactive: [1] -0.083 | [2] -0.026 | [3] -0.028 | [4] -0.046 | [5] 0.004 | [6] 0.047 | [7] 0.015 | [8] 0.038 | [9] -0.009 | [10] 0.033

RABGAP1L isoform 3 (UniProt Q5R372)
inactive: [1] -0.108 | [2] -0.026 | [3] -0.006 | [4] -0.05 | [5] -0.008 | [6] -0.025 | [7] 0.035 | [8] 0.033 | [9] 0.012 | [10] -0.066

RAB5C isoform 2 (UniProt P51148)
inactive: [1] -0.002 | [2] -0.053 | [3] -0.015 | [4] -0.055 | [5] -0.095 | [6] 0.015 | [7] 0.013 | [8] 0.038 | [9] -0.027 | [10] -0.017

RAP1GDS1 isoform 5 (UniProt P52306)
inactive: [1] -0.026 | [2] -0.019 | [3] 0.022 | [4] -0.023 | [5] -0.041 | [6] -0.025 | [7] 0.066 | [8] -0.072 | [9] 0.091 | [10] 0.015

RASSF5 (UniProt Q8WWW0)
inactive: [1] -0.085 | [2] 0.115 | [3] 0.112 | [4] 0.019 | [5] -0.103 | [6] 0.133 | [7] -0.054 | [8] 0.013 | [9] -0.091 | [10] 0.003

RB1CC1 (UniProt Q8TDY2)
active: [1] 0.435
inactive: [2] -0.079 | [3] 0.014 | [4] -0.002 | [5] -0.112 | [6] 0.182 | [7] -0.042 | [8] -0.049 | [9] 0.181 | [10] 0.083

RAB14 (UniProt P61106)
inactive: [1] 0.027 | [2] -0.02 | [3] 0.013 | [4] -0.023 | [5] -0.013 | [6] 0.033 | [7] -0.003 | [8] 0.041 | [9] 0.013 | [10] 0.06

RAC2 (UniProt P15153)
inactive: [1] 0.048 | [2] 0.015 | [3] -0.029 | [4] -0.006 | [5] -0.109 | [6] 0.097 | [7] -0.002 | [8] 0.004 | [9] -0.011 | [10] 0.009

RAD50, A0A494C0Y7
inactive: [1] -0.054 | [2] 0.001 | [3] -0.021 | [4] -0.05 | [5] 0.127 | [6] -0.077 | [8] 0.035 | [9] -0.142 | [10] 0.085

RAMAC (UniProt Q9BTL3)
inactive: [1] -0.055 | [2] 0.064 | [3] 0 | [4] 0.028 | [5] -0.07 | [6] -0.065 | [7] 0.012 | [8] -0.02 | [9] 0.108 | [10] -0.142

RAB33B (UniProt Q9H082)
inactive: [1] -0.104 | [2] -0.018 | [3] -0.073 | [4] 0.036 | [5] 0.035 | [6] 0.039 | [7] 0.037 | [8] 0.087 | [9] 0.046 | [10] 0.106

RAPGEF4 (UniProt Q8WZA2)
inactive: [1] 0.549 | [2] 0.053 | [3] -0.078 | [4] 0.021 | [5] -0.145 | [8] 0.187

RBM27 (UniProt Q9P2N5)
inactive: [1] -0.025 | [2] 0.094 | [3] 0.027 | [4] 0.075 | [5] 0.02 | [6] -0.058 | [7] 0.057 | [8] 0.018 | [9] 0.051 | [10] -0.08

RAB5A (UniProt P20339)
inactive: [1] 0.147 | [2] -0.151 | [3] 0.017 | [4] -0.108 | [5] -0.129 | [6] -0.049 | [7] -0.016 | [8] 0.021 | [9] 0.011 | [10] -0.11

RAF1 isoform 2 (UniProt P04049)
inactive: [1] 0.035 | [2] 0.085 | [3] -0.024 | [4] -0.102 | [5] 0.139 | [6] -0.246 | [8] -0.067 | [9] 0.051 | [10] 0.207

RALBP1 (UniProt Q15311)
inactive: [1] -0.108 | [2] 0.254 | [3] -0.014 | [4] 0.123 | [6] 0.217 | [9] 0.015 | [10] 0.116

RAD51AP1 (UniProt Q96B01)
inactive: [1] -0.041 | [2] 0.024 | [3] -0.026 | [4] -0.024 | [5] -0.007 | [6] 0.036 | [7] 0.051 | [8] 0.025 | [9] -0.083 | [10] -0.075

RABAC1 (UniProt Q9UI14)
inactive: [1] -0.07 | [2] -0.105 | [4] -0.043 | [5] -0.013 | [6] -0.032 | [7] 0.006 | [8] 0.056 | [9] 0.001 | [10] 0.03

RAPGEF5, A0A590UJR0
inactive: [1] -0.007 | [2] -0.106 | [3] 0.151 | [4] -0.872 | [5] -0.045 | [6] 0.185 | [7] -0.004 | [8] 0.073 | [9] 0.096 | [10] 0.215

RAB35 (UniProt Q15286)
inactive: [1] -0.041 | [2] -0.037 | [3] -0.042 | [4] -0.015 | [5] -0.072 | [6] -0.034 | [7] 0.044 | [8] 0.063 | [9] 0.024 | [10] 0.134

RAPGEF2, A0A2R8YGD3
inactive: [1] -0.108 | [2] -0.042 | [3] -0.153 | [4] -0.2 | [5] 0.372 | [6] 0.017 | [8] -0.025 | [9] 0.056 | [10] 0.086

RAB3GAP2 (UniProt Q9H2M9)
inactive: [1] 0 | [2] 0.049 | [3] 0.101 | [4] 0.01 | [5] -0.056 | [6] 0.009 | [7] 0.017 | [8] -0.103 | [9] 0.038 | [10] -0.027

RAB40C (UniProt Q96S21)
inactive: [1] -0.055 | [2] -0.14 | [4] 0.068 | [5] 0.012 | [6] -0.099 | [7] -0.388 | [8] 0.357 | [9] 0.001 | [10] 0.056

RABGEF1 isoform 3 (UniProt Q9UJ41)
inactive: [1] 0.065 | [2] 0.025 | [3] 0.038 | [4] 0.008 | [5] -0.018 | [6] 0.046 | [7] -0.047 | [8] 0.031 | [9] -0.023 | [10] 0.036

RANBP6 (UniProt O60518)
inactive: [1] -0.039 | [2] -0.243 | [6] 0.11 | [9] 0.166

RAB3IL1 (UniProt E9PK89)
inactive: [1] 0.031 | [2] -0.22 | [3] 0.093 | [4] -0.035 | [6] 0.097 | [7] -0.034 | [9] 0.063 | [10] -0.075

RAE1 (UniProt P78406)
inactive: [1] 0.107 | [2] 0.131 | [3] 0.036 | [4] 0.05 | [5] 0.025 | [6] -0.013 | [7] 0.048 | [8] -0.143 | [9] 0.053 | [10] -0.04

RAP1B (UniProt P61224)
inactive: [1] 0.195 | [2] -0.02 | [3] 0.014 | [4] -0.023 | [5] -0.003 | [6] -0.048 | [7] -0.01 | [8] 0.015 | [9] 0.033 | [10] 0.014

Retrieved one by one from the list above (2):
RAB11B (UniProt Q15907)
inactive: [1] -0.035 | [2] 0.019 | [3] -0.058 | [4] 0.025 | [5] -0.075 | [6] 0.048 | [7] 0.045 | [8] 0.065 | [9] -0.008 | [10] -0.01

RABGEF1 isoform 3 (UniProt Q9UJ41)
inactive: [1] 0.065 | [2] 0.025 | [3] 0.038 | [4] 0.008 | [5] -0.018 | [6] 0.046 | [7] -0.047 | [8] 0.031 | [9] -0.023 | [10] 0.036

Next part

RACK1 (UniProt P63244)
inactive: [1] 0.023 | [2] -0.116 | [3] -0.017 | [4] -0.056 | [5] -0.052 | [6] 0.063 | [7] -0.018 | [8] -0.104 | [9] 0.012 | [10] -0.081
